# Reference: PubChem BioAssay AID540276 (National Center for Advancing Translational Sciences (NCATS), 2011)
# The whole screen tested about 300,000 compounds, of which about 5,400 (1.8%) were called active. Inconclusive results, whose numbers are uncertain, are shown with a selection of clear calls. The call rests on the fitted dose curve; tested in HEK293 cells. Potencies beside an inconclusive call are fits to weak or partial responses and may not hold up.
# Experiment: qHTS for inhibitors of binding or entry into cells for Marburg Virus
# Conditions: Marburg virus pseudotyped entry inhibition, cell reporter; activity change, negative = inhibition: at 37.8 µM (top of the series) unless noted
# On the % scale 0 is the no-effect control and ±100 the full control effect; potency means the concentration at half of the fitted maximal effect.
Structure (SMILES),"activity change, negative = inhibition",Potency
Cc1ccccc1C(=O)NCCSc1ccccc1,inactive: 7.35%,
COc1cc(/C=N/NC(=O)c2c(C)nc3ccc(Cl)cn23)cc(OC)c1OC,,active: 4.47 µM
O=C(Nc1ncc(Cc2ccccc2Cl)s1)C1=NCCN1,,"inconclusive: 20.6 µM [inhibitor, single point]"
COc1ccc(NC(=S)N2CCCC2c2ccc(OC)c(OC)c2)cc1 (configuration not stated),,"inconclusive: 8.91 µM [inhibitor, partial curve, poor fit]"
O=C(CSc1nc2ccccc2o1)Nc1ccc(N2CCOCC2)c(Cl)c1,,"inconclusive: 0.708 µM [activator, full curve, poor fit]"
CCCCN(C)C(=O)c1cc2cc3ccc(OC)cc3nc2s1,,active: 10.3 µM
O=C(Cn1ncc2c1-c1ccccc1OC2)N(Cc1ccco1)C1CCCCC1,inactive: 1.51%,
Cc1ccc(-c2nnn(CC(=O)Nc3nnc(C(C)C)s3)n2)cc1,inactive: -8.33% [at 14.2 µM],
O=C(CN1CCCSc2ccccc21)N1CCN(S(=O)(=O)c2ccccc2)CC1,,"inconclusive: 15.8 µM [inhibitor, single point]"
Cc1ccc(Cc2c(C)nc3c(-c4ccccc4)c(C)[nH]n3c2=O)cc1,,"inconclusive: 0.631 µM [inhibitor, full curve, poor fit]"
CCOc1ccccc1CNC(=O)C1CCN(C(=O)c2sccc2-n2cccc2)CC1,,"inconclusive: 7.94 µM [inhibitor, partial curve, poor fit]"
Cc1ccoc1C(=O)Nc1ccc(CC(=O)O)cc1,,"inconclusive: 18.3 µM [inhibitor, single point]"
Cc1[nH]c2ccc(CNS(=O)(=O)c3ccc(S(=O)(=O)N4CCOCC4)cc3)cc2c1C,,"inconclusive: 29.1 µM [inhibitor, single point]"
Cc1ccc(NC(=S)c2nc3ccccc3[nH]2)c(C)c1,,"inconclusive: 35.5 µM [inhibitor, single point]"
O=C(CSc1nc2[nH]ncc2c(=O)[nH]1)Nc1ccc(Cl)c(Cl)c1,,"inconclusive: 10 µM [activator, partial curve, poor fit]"
COc1ccc(NC(=O)C(c2ccccc2)N(C)C(=O)CNC(C)=O)cc1 (configuration not stated),inactive: 9.17%,
COc1cccc(/C=C/C(=O)OCC(=O)c2c[nH]c3ccccc23)c1OC,inactive: 2.32%,
CCCCCSc1cc(OC)c(CCN(C)C)cc1OC,,"inconclusive: 15.8 µM [inhibitor, single point]"
COc1ccc(-c2nc(C)sc2CC(=O)O)cc1,,"inconclusive: 3.55 µM [activator, full curve, poor fit]"
c1ccc2sc(N3CCN(Cc4nnnn4CC4CCCO4)CC3)nc2c1 (configuration not stated),inactive: -17.4%,
S=c1[nH]nc(C2CCCCC2)o1,,"inconclusive: 8.91 µM [activator, single point]"
O=C(N/N=C\c1cc(Br)cs1)C1COc2ccccc2O1 (configuration not stated),,"inconclusive: 12.6 µM [inhibitor, partial curve, poor fit]"
Oc1ccccc1C1NN=C(c2ccccc2)S1 (configuration not stated),,"inconclusive: 31.6 µM [inhibitor, single point]"

# As entered above:
# activity change, negative = inhibition, `Cc1ccccc1C(=O)NCCSc1ccccc1` is entered as inactive: 7.35%
# Potency, `O=C(CSc1nc2[nH]ncc2c(=O)[nH]1)Nc1ccc(Cl)c(Cl)c1` is entered as inconclusive: 10 µM [activator, partial curve, poor fit]
# Potency, `S=c1[nH]nc(C2CCCCC2)o1` is entered as inconclusive: 8.91 µM [activator, single point]
# Potency, `CCCCCSc1cc(OC)c(CCN(C)C)cc1OC` is entered as inconclusive: 15.8 µM [inhibitor, single point]

# Next structures follow:

Structure (SMILES),"activity change, negative = inhibition",Potency
C/C(=N\N1CCN(C)CC1)c1c(O)[nH]c(=O)[nH]c1=O,,"inconclusive: 7.08 µM [activator, partial curve, poor fit]"
Cc1cc(C)cc(C(=O)N2CCCCC2)c1,,"inconclusive: 12.6 µM [inhibitor, partial curve, poor fit]"
CCCCOc1ccc(CSc2n[nH]c(C)n2)cc1,,"inconclusive: 32.6 µM [inhibitor, single point]"
CCc1ccc(CN(C)C(=O)c2cc(=O)c3ccccc3o2)cc1,,"inconclusive: 7.08 µM [inhibitor, partial curve, poor fit]"
O=C(Nc1cccnc1)c1ccc(Cl)c(S(=O)(=O)N2CCCCC2)c1,inactive: 2.81% [at 46.1 µM],
Cc1ccc(CC(=O)Nc2c(C(=O)N3CCN(c4ccccc4)CC3)oc3ccccc23)cc1,,"inconclusive: 35.5 µM [inhibitor, partial curve, poor fit]"
Cc1cccc(C(=O)N2CCC(=O)N(C(COCc3cccc(C(F)(F)F)c3)Cc3ccccc3)CC2)c1 (configuration not stated),,"inconclusive: 23.1 µM [inhibitor, partial curve, poor fit]"
O=C(Nc1cc(S(=O)(=O)N2CCCCC2)ccc1Cl)c1ccccc1NS(=O)(=O)c1ccc(F)cc1,,"inconclusive: 7.08 µM [inhibitor, full curve, poor fit]"
O=C(Nc1nc2ccsc2c(=O)s1)c1ccc(F)cc1Cl,inconclusive: 39.4% [activator] [at 46.1 µM],
CCNc1sc(C(=O)c2cccs2)c(N)c1-c1nc2ccccc2s1,,"inconclusive: 35.5 µM [inhibitor, single point]"
Cc1ccc(OC/C(=N\O)C(C)(C)C)c([N+](=O)[O-])c1,,"inconclusive: 35.5 µM [inhibitor, single point]"
Cc1cc(NS(=O)(=O)c2ccccc2)ccc1NS(=O)(=O)c1ccccc1,,"inconclusive: 35.5 µM [inhibitor, single point]"
C=C1CCC[C@]2(C)C[C@H]3OC(=O)C(CNCC(OC)OC)[C@H]3CC12 (some centres not stated),inactive: 3.8% [at 46.1 µM],
COC(=O)c1ccccc1NC(=O)C/C(C)=N/NC(=O)CC#N,inactive: 8.43% [at 46.1 µM],
Cc1cc(N2CCC(C(=O)Nc3ccc(Cl)cc3)CC2)n2nc(C)c(-c3ccc(Cl)cc3)c2n1,inactive: 8.38% [at 46.1 µM],
O=C(O)CSc1nnc(-c2ccc(O)cc2)o1,,"inconclusive: 5.62 µM [activator, single point]"
Cc1cc(NC(=O)CCCn2cc([N+](=O)[O-])cn2)n(Cc2ccc(F)cc2)n1,,"inconclusive: 3.98 µM [inhibitor, partial curve, poor fit]"
Cc1cc(OCC(=O)OC(C)C)c2c3c(c(=O)oc2c1)CCCC3,,"inconclusive: 35.5 µM [inhibitor, single point]"
COc1cccc(-c2nnc(-c3ccc(C(F)(F)F)cc3)o2)c1,inactive: 9.48%,
CCCN(CCC)S(=O)(=O)c1ccc(C(=O)Nc2nc3c(s2)CCc2ccccc2-3)cc1,,"inconclusive: 1.78 µM [inhibitor, full curve]"
O=C(N/N=C/c1cc([N+](=O)[O-])ccc1O)c1ccc(COc2ccc3c(c2)CCC3)o1,,"inconclusive: 31.6 µM [inhibitor, partial curve, poor fit]"
O=S(=O)(Nc1ccc(Cl)cc1)c1cccc2nsnc12,,"inconclusive: 3.16 µM [inhibitor, single point]"
O=C(N/N=C/c1ccco1)c1ccc(OCc2ccccc2)cc1,inactive: 10.1%,

# Exported bar-delimited: 2 of the compounds above.
Structure (SMILES) | activity change, negative = inhibition | Potency
S=c1[nH]nc(C2CCCCC2)o1 |  | inconclusive: 8.91 µM [activator, single point]
O=C(N/N=C\c1cc(Br)cs1)C1COc2ccccc2O1 (configuration not stated) |  | inconclusive: 12.6 µM [inhibitor, partial curve, poor fit]

# (cont.)

Structure (SMILES),"activity change, negative = inhibition",Potency
Cc1nc(N/C(N)=N/S(=O)(=O)c2ccccc2)nc2ccccc12,,"inconclusive: 10 µM [inhibitor, partial curve, poor fit]"
CC1(C)CC(=O)c2ccc(OCc3ccc([N+](=O)[O-])cc3)cc2O1,,"inconclusive: 5.62 µM [activator, single point]"
O=C(CCSc1ccccc1)Nc1ccc(S(=O)(=O)Nc2ncccn2)cc1,,"inconclusive: 6.31 µM [activator, full curve, poor fit]"
COc1ccc(NC(=S)N2CCC(c3nc4ccccc4o3)CC2)c(OC)c1,,"inconclusive: 0.355 µM [inhibitor, full curve, poor fit]"
COc1cccc(/C=N/NC(=O)c2ccccc2)c1OS(=O)(=O)c1ccccc1,inactive: 2.89%,
CCn1nc(C(=O)Nc2ccccc2N2CCCC2)c2ccccc2c1=O,,"inconclusive: 17.8 µM [inhibitor, single point]"
CCSc1nnc(-c2cccnc2)n1-c1ccc(C)c(Cl)c1,inactive: -6.62%,
CC1CCN(c2nc3c(c(=O)n(C)c(=O)n3C)n2CCSc2nc3ccccc3s2)CC1,,"inconclusive: 29.1 µM [inhibitor, single point]"
Cc1ccc(Cn2c(C(=O)O)cc3sccc32)cc1,,"inconclusive: 1.12 µM [inhibitor, partial curve, poor fit]"
CCN(CC)c1cc(C)c2cc(NC(=O)/C=C/c3ccccc3OC(C)C)ccc2n1,,"inconclusive: 11.2 µM [inhibitor, partial curve, poor fit]"
Cc1ccc(Oc2nc3ccccn3c(=O)c2/C=C(\C#N)c2nc3ccccc3s2)c(C)c1,,"inconclusive: 17.8 µM [activator, single point]"
CCc1nnc(NC(=S)Nc2ccccc2)s1,inactive: -26.1%,
CC(=O)Nc1ccc(C=NNC(=O)C2CC2)cc1,inactive: 14.9% [at 46.1 µM],
Oc1ccccc1-c1nnco1,,"inconclusive: 22.4 µM [activator, single point]"
CC(C)Oc1ccc(Br)cc1/C=N\NC(N)=S,,"inconclusive: 13 µM [inhibitor, partial curve, poor fit]"
C/C(=N/OCc1ccc(Br)cc1)c1ccccn1,,"inconclusive: 35.5 µM [activator, single point]"
CCOc1ccc(NC(=O)COC(=O)c2n[nH]c3ccccc23)cc1,,"inconclusive: 3.98 µM [activator, full curve, poor fit]"
Cc1ccc(S(=O)(=O)N2CCN(C(=O)COC(=O)c3c(C)cc(C)cc3C)CC2)c(C)c1,,"inconclusive: 35.5 µM [inhibitor, partial curve, poor fit]"
Cc1cc(CNC(=O)c2cc(-c3ccccc3)nc3ccccc23)nn1C,inactive: 9.39% [at 46.1 µM],
CCOc1ccc2[nH]c(=O)c(CN(CCO)C(c3nnnn3C3CCCCC3)C(C)C)cc2c1 (configuration not stated),inactive: -11.8%,
CC(CCC(=O)OC[C@H]1O[C@H](C#Cc2ccccc2)C=C[C@H]1Oc1ccc(C)cc1)=NO[C@H](C)c1cn([C@@H]2COC[C@@H]2O)nn1,,"inconclusive: 0.0299 µM [activator, full curve, poor fit]"
